Source: article PMC7898959, “Identification of an amino-terminus determinant critical for ryanodine receptor/Ca^2+ release channel function” (Cardiovascular Research, 2020)
These are yes or no findings as the source states them, for the method shown. Binding seen in cells or lysates may run through a third protein. Some results given as binding are weak or reduced against the parent protein; the word gives no strength.

Key:
[1] = target: NT^Δβ31–β32 (RyR2 residues 1–906, residues 748–752 removed) (human) (UniProt Q92736); experiment: cross-linking; HEK293 cell homogenate (20 μg) with glutaraldehyde (0.0025% or 260 μmol/L) for 0 min to 1 h under reducing (10 mM DTT) conditions; SDS-PAGE and blot with Ab^cMyc; tetramer formation T = ODT/(ODT + ODM) × 100 by densitometry
[2] = target: NT^Δβ20–β21 (RyR2 residues 1–906, residues 335–358 removed) (human) (UniProt Q92736); experiment: as above

| Substance | binding [1] | binding [2] |
| --- | --- | --- |
| NT^Δβ31–β32 (RyR2 residues 1–906, residues 748–752 removed) (from UniProt Q92736 1-906) (domain or fragment) | binds | – |
| NT^Δβ20–β21 (RyR2 residues 1–906, residues 335–358 removed) (from UniProt Q92736 1-906) (domain or fragment) | – | binds |
